Test results: paper PMC10313831
Results are given in words; binding and its absence hold for the method and conditions named. Some entries that bind do so weakly or less than the wild type.

The chains behind the UniProt entries cited, without tags or fusion partners.
UniProt P26754: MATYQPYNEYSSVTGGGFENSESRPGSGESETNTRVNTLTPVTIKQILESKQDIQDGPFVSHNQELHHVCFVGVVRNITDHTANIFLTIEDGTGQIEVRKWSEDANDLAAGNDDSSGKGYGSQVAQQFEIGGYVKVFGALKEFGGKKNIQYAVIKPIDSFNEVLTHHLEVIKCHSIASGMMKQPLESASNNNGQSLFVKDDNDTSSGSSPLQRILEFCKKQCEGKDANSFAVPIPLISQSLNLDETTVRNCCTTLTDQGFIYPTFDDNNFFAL
UniProt P22336: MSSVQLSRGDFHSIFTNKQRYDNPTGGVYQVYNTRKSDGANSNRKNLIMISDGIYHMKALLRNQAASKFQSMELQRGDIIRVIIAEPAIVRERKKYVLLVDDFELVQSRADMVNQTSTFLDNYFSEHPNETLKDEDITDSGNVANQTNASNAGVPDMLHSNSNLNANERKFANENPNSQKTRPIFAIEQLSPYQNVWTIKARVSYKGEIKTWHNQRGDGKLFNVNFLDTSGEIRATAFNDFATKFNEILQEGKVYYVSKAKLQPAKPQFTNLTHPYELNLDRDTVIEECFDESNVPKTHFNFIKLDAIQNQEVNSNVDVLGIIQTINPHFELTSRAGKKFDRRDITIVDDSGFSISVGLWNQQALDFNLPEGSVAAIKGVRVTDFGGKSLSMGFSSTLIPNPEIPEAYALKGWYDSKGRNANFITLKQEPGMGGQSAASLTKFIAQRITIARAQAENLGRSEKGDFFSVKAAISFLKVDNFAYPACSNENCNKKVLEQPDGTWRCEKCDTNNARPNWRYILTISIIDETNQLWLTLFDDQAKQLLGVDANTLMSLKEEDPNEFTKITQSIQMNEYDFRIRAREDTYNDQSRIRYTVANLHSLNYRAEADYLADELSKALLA
UniProt P26755: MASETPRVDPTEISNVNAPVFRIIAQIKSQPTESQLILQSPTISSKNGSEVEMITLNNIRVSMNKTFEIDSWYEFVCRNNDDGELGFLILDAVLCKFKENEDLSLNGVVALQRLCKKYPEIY

Molecular target: Rfa2-MeGFP-6xHis (subunit of S. cerevisiae RPA) (S. cerevisiae) (UniProt P26754)
Experiment: SEC; subunits co-expressed in E. coli and co-purified over Affi-Gel-Blue, Ni-NTA and Superdex 200 10/300 GL in T-500 buffer (25 mM Tris-HCl pH 7.5, 500 mM NaCl, 1 mM EDTA, 5% glycerol); fractions tested by SDS-PAGE and Coomassie

binding | Substance
binds | Rfa1 (subunit of S. cerevisiae RPA) (from UniProt P22336 1-621)
binds | Rfa3 (subunit of S. cerevisiae RPA) (from UniProt P26755 1-122)
